Laboratory results reported in PubChem BioAssay AID651640 (Broad Institute, 2012).
About 6,000 (1.7%) of roughly 350,000 compounds were called active. The inconclusive results got no clear call from the source; some entries with a clear call stand among them for comparison. Rule as the data show it: active = CPE inhibition above about 20% (passing the limit was not always enough); inconclusive = no clear call, values can overlap the other calls; tested in BHK-21 cells.

Assay: protection of cells from dengue 2 killing – plate reader, single concentration, primary screen (AID 651640);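 also: 0% = median of neutral control wells and 100% = median of positive control wells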
Settings: DENV2-infected cells, cytopathic effect rescue, at 9.99 µM, hits give high values

| Compound | CPE inhibition |
| --- | --- |
| CCc1ccc(NC(=O)NCCN2CCCCC2)cc1 | inactive: 1.35% |
| C[C@@H]1CCCCO[C@@H](CN(C)CC2CC2)[C@@H](C)CN([C@H](C)CO)C(=O)c2cc(NC(=O)NC3CCCCC3)ccc2O1 | inactive: -4.11% |
| Cc1noc(C)c1NC(=O)Nc1ccc2c(c1)C(=O)N(C)[C@@H]1CC[C@@H](CC(=O)NCc3ccc(Cl)cc3)O[C@@H]1CO2 | inconclusive: 37.5% |
| Cc1noc(C)c1NC(=O)Nc1cccc2c1O[C@H](CN(C)Cc1ccc3c(c1)OCO3)[C@@H](C)CN([C@@H](C)CO)C2=O | active: 21.5% |
| Cc1ccc(C)c(NC(=O)COc2coc(CN3CCc4ccccc4C3)cc2=O)c1 | inactive: -1.37% |
| CCCN1CCc2c(sc(NC(=O)c3ccc(S(=O)(=O)N4CCN(C(=O)OCC)CC4)cc3)c2C(N)=O)C1 | inconclusive: 54.8% |
| O=C(C(=O)N1CCN(c2ccccc2)CC1)c1ccccc1 | inconclusive: 22.4% |
| O=C(C[C@H]1CC[C@H]2[C@@H](COC[C@@H](O)CN2C(=O)Cc2ccccc2)O1)NC1CCCC1 | inconclusive: 86.8% |
| C[C@H](CO)N1C[C@H](C)[C@@H](CN(C)C(=O)Nc2ccc(F)cc2)OCCCC[C@H](C)Oc2ccc(NC(=O)NC3CCCCC3)cc2C1=O | inconclusive: 25.7% |
| CN1CCc2c(OCC(=O)N3N=C(c4cccs4)CC3c3ccc(F)cc3)cccc2C1=O (stereo unspecified) | inconclusive: 20.6% |
| CCOc1ccc2nc(NC(=O)C3CSC4(C)CCC(=O)N34)sc2c1 (stereo unspecified) | inconclusive: 20.8% |
| O=S(=O)(c1ccccc1)N1CCNc2ccccc21 | inconclusive: 26% |
| C[C@H]1CCCCO[C@H](CN(C)C(=O)C2CCCCC2)[C@@H](C)CN([C@@H](C)CO)C(=O)c2cc(NC(=O)Nc3ccc(F)cc3)ccc2O1 | inactive: 7.56% |
| COc1cc(NC(=O)CC(C)n2ccnc2)cc(OC)c1 (stereo unspecified) | inactive: 2.37% |
| O=C(C[C@@H]1C/C=C/CC[C@@H](Cc2ccc(F)cc2)C(=O)OCCNC1=O)N[C@H](CO)Cc1ccccc1 | inconclusive: 59.9% |
| C[C@@H]1CN([C@@H](C)CO)C(=O)Cc2cc(NC(=O)Nc3cccc4ccccc34)ccc2O[C@@H]1CN(C)Cc1ccc(C(=O)O)cc1 | active: 48.9% |
| CC(C)NC(=O)N(C)C[C@@H]1Oc2ccc(NC(=O)CCN3CCOCC3)cc2C(=O)N([C@@H](C)CO)C[C@H]1C | inactive: -1.57% |
| Cc1ccc(-c2cn(-c3ccc(OC(F)F)cc3)c3[n+]2CCCCC3)cc1 | inactive: -6.65% |
| CCOC(=O)N1CCN(C(=O)COC(=O)c2cccc(S(C)(=O)=O)c2)CC1 | inconclusive: 27.7% |
| OC[C@@H]1[C@@H](c2ccc(-c3ccccc3)cc2)[C@H]2CN(CCC(F)(F)F)CCCCN12 | active: 20.4% |
| O=C(C[C@@H]1CC[C@H]2[C@@H](COC[C@@H](O)CN2Cc2cccc(Cl)c2)O1)N1CCOCC1 | active: 89.7% |
| CN(C)c1ccc(/C=N/N2CCN(Cc3ccccc3Cl)CC2)cc1 | active: 55.1% |
| CN1CCC(=O)N([C@H](COc2ccccc2)Cc2ccccc2)CC1 | active: 20% |
| CC(=O)N1[C@H](CO)[C@H](c2ccc(C3=CCCC3)cc2)[C@H]1CNC(=O)CN(C)C | inconclusive: 13.6% |

| Compound | CPE inhibition |
| --- | --- |
| O=C(C[C@H]1C=C[C@@H](NS(=O)(=O)c2ccccc2)[C@H](CO)O1)NCCN1CCCCC1 | inconclusive: 40.5% |
| CC1CCN(c2ccc(S(=O)(=O)Nc3cc(C(=O)O)cc(C(=O)O)c3)cc2[N+](=O)[O-])CC1 | inconclusive: 36.8% |
| O=c1c(-c2ccccc2)nc2ccccc2n1C(c1ccccn1)c1nc2ccccc2[nH]1 (stereo unspecified) | inconclusive: 20.3% |
| N#Cc1ccc(-c2ccc([C@H]3[C@H](CO)N4CCCCN(C(=O)Nc5ccc(F)cc5)C[C@@H]34)cc2)cc1 | active: 48.7% |
| O=C1CN(Cc2ccc(F)cc2)C[C@H]2[C@@H](c3ccc(-c4cccnc4)cc3)[C@H](CO)N12 | active: 23.6% |
| COc1ccc(CN2C(=O)C(CC(C)C)Nc3ncnc(N4CCN(c5ccccn5)CC4)c32)cc1 (stereo unspecified) | inconclusive: 28.7% |
| COc1cccc(C2=CC(c3ccc(OC)c(OC)c3)NC(=S)N2)c1 (stereo unspecified) | inconclusive: 22.8% |
| O=C(C[C@@H]1C/C=C/CC[C@H](Cc2ccc(F)cc2)C(=O)OCCNC1=O)N[C@H](CO)Cc1ccccc1 | inconclusive: 21.6% |
| COc1ccc2c3c(n(C)c2c1)[C@@H](CO)N(C(=O)NC(C)C)CC31CCN(C(C)=O)CC1 | inconclusive: 69% |
| O=C(Nc1ccccc1)N[C@H]1CC[C@H](CCNS(=O)(=O)c2cccc(F)c2)O[C@@H]1CO | inconclusive: 32.7% |
| C[C@@H]1CN([C@H](C)CO)C(=O)c2cccc(NS(=O)(=O)c3ccc(Cl)cc3)c2O[C@@H]1CN(C)S(=O)(=O)c1cccs1 | active: 76.3% |
| O=C(c1cccc(F)c1)N1CCCCN2[C@H](CO)[C@H](c3ccc(-c4ccncc4)cc3)[C@@H]2C1 | active: 21.8% |
| Cc1[nH]c2ccccc2c1C(=O)C(=O)N1CCN(c2ccccc2)CC1 | inconclusive: 37.4% |
| CN(C)CC(=O)N1[C@@H](C#N)[C@@H](c2ccc(C#CC3CCCCC3)cc2)[C@@H]1CO | inconclusive: 34% |
| CC(C)Oc1ccc(CN2CCC2(C)C(=O)NCc2cccc3ccccc23)cc1 (stereo unspecified) | inconclusive: 43.8% |
| COc1ccc(-c2cc(-c3ccc(Cl)cc3)c(C#N)c(SCC(=O)O)n2)cc1 | active: 61.2% |
| Cc1ccc2nc(C3CCCCC3)c(Cc3ccccc3C(F)(F)F)n2c1 | inconclusive: 21.2% |
| O=C(Nc1ccccc1C(=O)NCCc1ccccc1)c1cnccn1 | inconclusive: 27.1% |
| Cn1nc(C(=O)Nc2nc(-c3ccccn3)cs2)c2ccccc2c1=O | inconclusive: 38.4% |
| CN1C(=O)c2cc(NS(C)(=O)=O)ccc2OC[C@@H]2O[C@H](CC(=O)NCc3ccc(-c4ccccc4)cc3)CC[C@H]21 | inactive: -3.29% |
| CCOc1ccc2nc(NC(=O)CN3CCN(CC)CC3)sc2c1 | active: 44.2% |
| C[C@H]1CNC(=O)c2c(C(=O)Nc3ccc(CNC(=O)OC(C)(C)C)cc3)ncn21 | inactive: 7.33% |
| CCCCCC(=O)N1C[C@@H](O)[C@H](n2cc(C3CC3)nn2)C[C@@H]1c1ccc(Cl)cc1 | inconclusive: 80.4% |
| Cc1ccc(S(=O)(=O)Nc2ccc(N(C)C)cc2)cc1 | inactive: -4.23% |

| Compound | CPE inhibition |
| --- | --- |
| CCC(=O)N1C[C@H]2[C@@H](c3ccccc31)[C@H](CO)N2Cc1ccccc1Cl | inactive: 9.85% |
| CCCNC(=O)N1C[C@@H]2N[C@H](C1)C2c1ccc(-c2ccc(F)cc2)cc1 (stereo partly specified) | inconclusive: 32.2% |
| FC(F)(F)c1ccc(-c2noc(CN3CCCN(C4CCCCC4)CC3)n2)cc1 | inconclusive: 46% |
| C[C@H]1CN([C@@H](C)CO)C(=O)Cc2cc(NC(=O)Cc3ccccc3)ccc2O[C@@H]1CN(C)Cc1ccncc1 | active: 23% |
| O=C(NCC[C@H]1CC[C@H](NC(=O)C2CC2)[C@H](CO)O1)c1cc(Cl)cc(Cl)c1 | inactive: 1.09% |
| CN(CCO)S(=O)(=O)c1ccc2c(c1)C(=NO)c1cc(S(=O)(=O)N(C)CCO)ccc1-2 | inactive: 1.63% |
| COc1cccc(NC(=O)CN(C)C(=O)c2cc(CN3C(=O)c4ccccc4C3=O)ccc2OC)c1 | inconclusive: 43.5% |
| COc1ccc(S(=O)(=O)N(C)C[C@@H]2Oc3ccc(NS(=O)(=O)c4ccccc4)cc3C(=O)N([C@H](C)CO)C[C@@H]2C)cc1 | inconclusive: 42.3% |
| O=C(Nc1cccc(S(=O)(=O)N2CCCCC2)c1)c1cc([N+](=O)[O-])ccc1N1CCOCC1 | inconclusive: 34.3% |
| C[C@H]1CN([C@@H](C)CO)C(=O)Cc2cc(NC(=O)Cn3cnnn3)ccc2O[C@H]1CN(C)Cc1ccccc1 | inactive: -5.11% |
| COc1cc(NC(=O)c2ccc(-c3c(C)noc3C)c3ccoc23)cc(OC)c1OC | inconclusive: 44.4% |
| Cc1ccc(/C=N/NC(=O)CNC(=O)c2cccc([N+](=O)[O-])c2C)o1 | inactive: 2.7% |
| O=C(COc1ccc2c3c(c(=O)oc2c1)CCC3)NC(Cc1ccc(Cl)cc1)C(=O)O (stereo unspecified) | inconclusive: 46.9% |
| C[C@H]1CN([C@@H](C)CO)C(=O)c2cc(NS(=O)(=O)c3cn(C)cn3)ccc2O[C@@H]1CN(C)Cc1ccccc1 | active: 23.7% |
| CNC[C@@H]1Oc2c(N)cccc2C(=O)N([C@H](C)CO)C[C@@H]1C | inactive: -5.13% |
| O=C(N/N=C/c1ccc(N2CCOCC2)cc1)c1ccncc1 | active: 72.3% |
| NC(=O)c1nsc(C(=O)N(c2ccccc2)C(C(=O)NCc2ccc(F)cc2)c2ccc(O)cc2)c1N (stereo unspecified) | inconclusive: 57.1% |
| Cc1ccc(S(=O)(=O)Nc2ccc3c(c2)C(=O)N([C@@H](C)CO)C[C@@H](C)[C@H](CN(C)S(=O)(=O)c2ccc(C)cc2)O3)cc1 | inconclusive: 57.2% |
| CCC/C(=C1/c2ccccc2C(=O)N1c1ccccc1)c1ccc(O[C@@H]2CCCCO2)cc1 | active: 36.9% |
| O=C(Nc1ccccc1)C1Cc2c(-c3ccc(Cl)cc3)ccnc2O1 (stereo unspecified) | inconclusive: 84.7% |
| Cc1noc(C)c1S(=O)(=O)Nc1ccc2c(c1)C(=O)N([C@H](C)CO)C[C@H](C)[C@H](CN(C)S(=O)(=O)c1ccc(F)cc1)OCCCC[C@H](C)O2 | inconclusive: 40.2% |
| C[C@@H]1CCCCO[C@@H](CN(C)CC2CC2)[C@H](C)CN([C@@H](C)CO)C(=O)c2cc(NC(=O)c3ccncc3)ccc2O1 | inactive: 1.92% |
| CCO/C=C1/C(=O)N(Cc2ccccc2)C(=O)c2ccccc21 | inactive: 11% |

In a second layout: entries from further up
Compound	CPE inhibition
C[C@H]1CN([C@@H](C)CO)C(=O)Cc2cc(NC(=O)Cn3cnnn3)ccc2O[C@H]1CN(C)Cc1ccccc1	inactive: -5.11%
C[C@H]1CN([C@@H](C)CO)C(=O)c2cc(NS(=O)(=O)c3cn(C)cn3)ccc2O[C@@H]1CN(C)Cc1ccccc1	active: 23.7%

In a second layout: 2 of the compounds above
Cc1noc(C)c1S(=O)(=O)Nc1ccc2c(c1)C(=O)N([C@H](C)CO)C[C@H](C)[C@H](CN(C)S(=O)(=O)c1ccc(F)cc1)OCCCC[C@H](C)O2
  CPE inhibition: inconclusive: 40.2%
C[C@@H]1CCCCO[C@@H](CN(C)CC2CC2)[C@H](C)CN([C@@H](C)CO)C(=O)c2cc(NC(=O)c3ccncc3)ccc2O1
  CPE inhibition: inactive: 1.92%
